Screen size: about 340,000 compounds; about 6,200 (1.8%) were called active. Inconclusive results, whose numbers are uncertain, are shown with a selection of clear calls. The call rests on the fitted dose curve; in most records, active means well fitted activation curve with a large enough effect; inconclusive means small, poorly fitted or top-dose-only effect; inactive means no such curve, though single readings can be large or run the other way. Where the call is inconclusive, the potency comes from a doubtful curve fit.
Experiment: A quantitative high throughput screen for small molecules that induce DNA re-replication in SW480 colon adenocarcinoma cells. Further: nearly all actives have a fitted effect of over 55% in size. On re-replication activation: % of control where 0% means no effect.
Settings: Hoechst DNA content imaging, 48 h; re-replication activation: at 46.1 µM (top of the series) unless noted
Method in brief: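 Compounds, transferred as 23 nL by pin tool, were incubated with cells for 48 hr; DNA content per nucleus was then quantified by Hoechst staining and fluorescence plate imaging.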
Potency means the concentration at half of the fitted maximal effect.

Row | Compound | Potency | re-replication activation
1 | O=C(NCCNC(=O)c1ccccc1Cl)c1ccco1 | inactive | 
2 | COc1ccc(NC(=S)NC(NC(=O)c2cccc3ccccc23)C(Cl)(Cl)Cl)c([N+](=O)[O-])c1 (configuration not stated) | inconclusive: 23.1 µM [activator, partial curve, poor fit] | 
3 | CC(=O)c1cccc(NC(=O)CN2CCc3cc4c(cc3C2)OCCCO4)c1 | inconclusive: 0.0041 µM [activator, full curve, poor fit] | 
4 | O=C(O)c1ccc(COc2ccccc2C=C2C(=O)c3ccccc3C2=O)cc1 | inconclusive: 20.6 µM [activator, partial curve, poor fit] | 
5 | O=C(Cn1cc(S(=O)(=O)N2CCCC2)c(S(=O)(=O)N2CCCC2)c1)NCc1ccco1 | inconclusive: 0.146 µM [activator, full curve, poor fit] | 
6 | Cc1ccc(NC(=O)Cc2ccc(Cl)cc2)nc1 | inactive | 
7 | CN(C(=S)Nc1cccnc1)c1ccc(O)cc1 | inactive | 
8 | CC(NC(=O)CCC(=O)c1ccc(F)cc1)C1CC2CCC1C2 (configuration not stated) | inconclusive: 0.794 µM [activator, full curve, poor fit] | 
9 | Cc1ccc(S(=O)(=O)NCc2ccc(C(=O)NCCN(Cc3ccccc3)C(C)C)cc2)cc1 | inconclusive: 25.9 µM [activator, partial curve, poor fit] | 
10 | O=C(CCCCC(=O)NN=Cc1ccc(Cl)cc1)NN=Cc1ccc(Cl)cc1 | inactive | 
11 | Cc1cc(C)c(C(N)=O)c(SCC(=O)c2cc(C)n(-c3cc(C)on3)c2C)n1 | inconclusive: 29.1 µM [activator, partial curve, poor fit] | 
12 | CN(C(=O)CSc1nnc(Cc2cccs2)n1C1CC1)C1CCS(=O)(=O)C1 (configuration not stated) | inconclusive: 9.2 µM [activator, single point] | 
13 | CCc1nc2c(c(=O)[nH]1)C(CC)(CC)Cc1ccccc1-2 |  | inactive: -4.98% [at 9.22 µM]
14 | COc1cc(Cl)c(CN2CCCC(CO)(Cc3cccc(Cl)c3)C2)cc1OC (configuration not stated) | inconclusive: 13 µM [activator, single point] | 
15 | O=C(O)c1ccccc1NC(=O)C1CCN(S(=O)(=O)c2cccc3nsnc23)CC1 | inconclusive: 3.55 µM [activator, single point] | 
16 | O=C(CSc1n[nH]c(-c2ccccc2O)n1)NC1CCCCC1 | inconclusive: 16.4 µM [activator, single point] | 
17 | O=C(COc1ccc(F)cc1)NCCN1CCCC1 | inconclusive: 0.517 µM [activator, full curve, poor fit] | 
18 | Cc1ccc2c(c1)CCCN2C(=O)c1cccs1 | inconclusive: 29.1 µM [activator, single point] | 
19 | O=[N+]([O-])c1cccc2c(N3CCCC3)ccnc12 | inconclusive: 5.8 µM [activator, partial curve, poor fit] | 
20 | O=C(CN1C2=NCCCN2c2ccccc21)c1ccc([N+](=O)[O-])cc1 | inconclusive: 25.9 µM [activator, single point] | 
21 | c1ccc(Cn2c[n+](Cc3ccccc3)cn2)cc1 | inconclusive: 29.1 µM [activator, single point] | 
22 | Cc1nn(C)c(C)c1N1C(=O)c2cccc3c(Br)ccc(c23)C1=O | inconclusive: 29.1 µM [activator, single point] | 
23 | COc1ccccc1-c1nc(-c2ccccn2)no1 | inactive | 

Row | Compound | Potency | re-replication activation
24 | CN(C(=O)c1ccc(NC(=O)Cc2cccc([N+](=O)[O-])c2)cc1)C1CCCC1 | inactive | 
25 | Cc1cc(NC(=O)c2c(C)noc2C)no1 | inconclusive: 1.03 µM [activator, full curve, poor fit] | 
26 | CCCCn1c(=O)[nH]c(=O)c2c1nc(-c1cccc(OC)c1)n2C | inconclusive: 0.731 µM [activator, partial curve, poor fit] | 
27 | COc1cccc(NS(=O)(=O)c2ccc3[nH]cc(C(=O)NCCC(C)C)c(=O)c3c2)c1 | inactive | 
28 | Cc1ccc(CSCC(=O)N(CCC(C)C)c2c(N)n(Cc3ccccc3)c(=O)[nH]c2=O)cc1 | inconclusive: 29.1 µM [activator, single point] | 
29 | CC(SC#N)C(=O)C12CC3CC(CC(C3)C1)C2 (configuration not stated) | inconclusive: 29.1 µM [activator, single point] | 
30 | COc1ccc(/C=N/Nc2cc(C)nc3c(C)cccc23)cc1 | active: 25.9 µM | 
31 | Cc1c(Br)c(C(F)(F)F)nn1CC(=O)NCc1ccccc1 | inconclusive: 23.1 µM [activator, partial curve, poor fit] | 
32 | Cn1c(SCC(=O)NNC(=O)Cc2ccccc2)nnc1-c1ccccc1 | inconclusive: 29.1 µM [activator, single point] | 
33 | O=C(CN1C(=O)NC(c2ccccc2)(c2ccccc2)C1=O)NC1CCCCC1 |  | inconclusive: -37.9% [activator]
34 | CC(/C=C1\SC(=S)N(CCC(=O)Nc2ccccc2O)C1=O)=C\c1ccccc1 | inactive | 
35 | CN1C/C(=C/c2cccs2)C(=O)/C(=C\c2cccs2)C1 | inconclusive: 18.4 µM [activator, single point] | 
36 | Cn1c(O)c(N=NC(=O)c2cc(-c3cccs3)nc3ccccc23)c2ccccc21 | inactive | 
37 | Cc1cc(NC(=O)C23CC4CC(C2)CC(n2cnc([N+](=O)[O-])n2)(C4)C3)no1 | inconclusive: 18.4 µM [activator, single point] | 
38 | O=C(Cc1ccc(F)cc1)NCCS(=O)(=O)N1CCN(c2ccccc2)CC1 | inconclusive: 29.1 µM [activator, single point] | 
39 | O=C1CC(c2ccccc2)CC2=C1C=Nc1ccccc1N2 (configuration not stated) | active: 14.6 µM | 
40 | CSc1cc(-c2ccc(Cl)cc2)c(C(=O)NN)s1 | inconclusive: 18.4 µM [activator, single point] | 
41 | CCOc1ccc(N(CC(=O)Nc2ccccc2OC)S(C)(=O)=O)cc1 | inconclusive: 29.1 µM [activator, single point] | 
42 | CCN(C[C@H]1N[C@@](CC)(C(=O)OC)[C@H]2C(=O)N(C)C(=O)[C@@H]12)S(=O)(=O)c1ccc(OC(F)(F)F)cc1 | inactive | 
43 | COc1ccc([N+](=O)[O-])cc1NC(=O)C(C)N1CCN(C(=O)c2ccco2)CC1 (configuration not stated) | inconclusive: 1.16 µM [activator, partial curve, poor fit] | 
44 | COc1cc2c[n+](C)c3c4ccccc4ccc3c2cc1OC | inconclusive: 18.4 µM [activator, partial curve, poor fit] | 
45 | Cc1ccc(NC(=O)c2ncn(CCCNCC(C)c3ccccc3)n2)cc1C (configuration not stated) | inconclusive: 16.4 µM [activator, partial curve, poor fit] | 
46 | CC1(C)CC(=O)C(C=Nc2ccc(C(=O)c3ccccc3)cc2N=CC2=C(O)CC(C)(C)CC2=O)=C(O)C1 | inconclusive: 20.6 µM [activator, single point] | 

An excerpt from above in order of molar mass, rising.
Row | Compound | Potency | re-replication activation
29 | CC(SC#N)C(=O)C12CC3CC(CC(C3)C1)C2 (configuration not stated) | inconclusive: 29.1 µM [activator, single point] | 
6 | Cc1ccc(NC(=O)Cc2ccc(Cl)cc2)nc1 | inactive | 
2 | COc1ccc(NC(=S)NC(NC(=O)c2cccc3ccccc23)C(Cl)(Cl)Cl)c([N+](=O)[O-])c1 (configuration not stated) | inconclusive: 23.1 µM [activator, partial curve, poor fit] | 

(more compounds)

Row | Compound | Potency | re-replication activation
47 | O=C1C(=O)c2ccccc2C([O-])=C1[n+]1ccccc1 | inactive | 
48 | Cc1ccc(CNC(=O)CCC(=O)Nc2nnc(C(C)C)s2)cc1 | inconclusive: 29.1 µM [activator, single point] | 
49 | CCCc1cc(=O)oc2cc(C)cc(OCC(=O)NC(Cc3ccc(Cl)cc3)C(=O)O)c12 (configuration not stated) | inactive | 
50 | NC(=O)c1ccc(NC(=O)COC(=O)CCSc2ccccc2)cc1 | inconclusive: 1.16 µM [activator, single point] | 
51 | Cc1ccc(C(C(=O)NC2CCCC2)N(C(=O)CCC(=O)Nc2cc(C)on2)c2ccccc2)cc1 (configuration not stated) | inactive | 
52 | O=[N+]([O-])c1cc([N+](=O)[O-])c(Oc2cccc(Cl)c2Cl)cc1NN1CCCCC1 | inactive | 
53 | Cc1cccc(NC(=O)c2ccc(N3CCOCC3)c([N+](=O)[O-])c2)n1 | inactive | 
54 | Cc1ccc(NNS(=O)(=O)c2ccc(C)cc2)cc1 | inconclusive: 29.1 µM [activator, single point] | 
55 | O=C(CN1C(=O)C2CCCCC2C1=O)OCn1nnc2ccccc2c1=O (configuration not stated) | inconclusive: 0.0073 µM [activator, full curve, poor fit] | 
56 | CN(C)c1nc(N)c(C#N)c(C#N)c1C#N | inactive | 
57 | Cc1ccnc(NC(=O)CCNC(=O)c2ccc(Cl)cc2)c1 | inconclusive: 0.82 µM [activator, full curve, poor fit] | 
58 | CC(C)(C)c1ccc(S(=O)(=O)N2CCSC2)cc1 | inconclusive: 14.6 µM [activator, partial curve, poor fit] | 
59 | O=C(/C=C/c1cn(-c2ccccc2)nc1-c1ccc2c(c1)OCCO2)NCCCN1CCOCC1 | inconclusive: 29.1 µM [activator, single point] | 
60 | O=C(Nc1cccc(S(=O)(=O)NC2=NCCC2)c1)c1cc(-c2ccccn2)nc2ccccc12 | inactive | 
61 | O=C(OC1CCOC1=O)c1ccccc1C(=O)c1ccc(Cl)c([N+](=O)[O-])c1 (configuration not stated) | inconclusive: 29.1 µM [activator, single point] | 
62 | C=CC(=O)N1c2ccccc2Sc2ccc(NC(=O)OCC)cc21 | inconclusive: 20.6 µM [activator, single point] | 
63 | O=C(Nc1ccc(Cl)cc1F)c1ccccc1Br | inactive | 
64 | CCN(CC(=O)Nc1ccc2c(c1)OCCO2)S(=O)(=O)c1ccccc1 | inactive | 
65 | CC1(C)CC(=O)C2=C(C1)Oc1nc3ccccc3cc1C2C(C#N)C#N (configuration not stated) | inconclusive: 20.6 µM [activator, single point] | 
66 | O=C(OCc1ccccc1)N(CCF)c1cn(Cc2ccccc2)c(=O)n(Cc2ccccc2)c1=O | inconclusive: 16.4 µM [activator, single point] | 
67 | CCN(CC(=O)NCc1cccs1)c1nnnn1-c1ccccc1 | inconclusive: 20.6 µM [activator, single point] | 

Two entries from above, as comma-separated lines.
Row,Compound,Potency,re-replication activation
45,Cc1ccc(NC(=O)c2ncn(CCCNCC(C)c3ccccc3)n2)cc1C (configuration not stated),"inconclusive: 16.4 µM [activator, partial curve, poor fit]",
46,CC1(C)CC(=O)C(C=Nc2ccc(C(=O)c3ccccc3)cc2N=CC2=C(O)CC(C)(C)CC2=O)=C(O)C1,"inconclusive: 20.6 µM [activator, single point]",
